From paper PMC5722644
Results are given in words; binding and its absence hold for the method and conditions named. Binding seen in cells or lysates may run through a third protein. A yes stands for co-enrichment or nearness to the bait. Other partners may have been found. Where a sequence is shown, tags or fusion partners need not be part of it.

T1: FLAG-tagged Drosophila spartin (Drosophila) (UniProt Q9VN45)
T1 sequence: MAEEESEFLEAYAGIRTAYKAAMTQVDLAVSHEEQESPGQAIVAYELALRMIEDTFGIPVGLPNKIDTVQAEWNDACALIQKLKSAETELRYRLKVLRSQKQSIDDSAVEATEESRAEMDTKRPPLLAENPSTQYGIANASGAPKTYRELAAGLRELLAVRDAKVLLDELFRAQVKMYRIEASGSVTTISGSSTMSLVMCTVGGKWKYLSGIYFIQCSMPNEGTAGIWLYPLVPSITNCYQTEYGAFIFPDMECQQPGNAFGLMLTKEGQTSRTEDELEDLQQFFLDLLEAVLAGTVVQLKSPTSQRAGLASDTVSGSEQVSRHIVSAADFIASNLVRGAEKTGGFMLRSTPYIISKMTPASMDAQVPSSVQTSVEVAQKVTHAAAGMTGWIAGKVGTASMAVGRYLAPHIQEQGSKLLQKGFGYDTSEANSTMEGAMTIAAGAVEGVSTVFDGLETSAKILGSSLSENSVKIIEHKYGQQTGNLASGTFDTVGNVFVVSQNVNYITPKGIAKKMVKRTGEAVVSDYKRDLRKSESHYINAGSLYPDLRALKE

B1: Yip3 (protein, UniProt P53633 1-176)
chain: MNQLGALAQVSRFTQNFSMENIKSEFQSLQSKLATLRTPQEFFNFKKISKPQNFGEVQSRVAYNLKYFSSNYGLIIGCLSIYTLLTNLLLLFVIVLVVAGIVGINKLKGEELVTPFGSFKTNQLYTGLVCVAVPIGFLASPISTLLWLIGASAVSVFGHASLMEKPIETVFDEETV
B2: Rpl27ap (protein, UniProt P0C2H6 1-136)
chain: MAKFLKAGKVAVVVRGRYAGKKVVIVKPHDEGSKSHPFGHALVAGIERYPLKVTKKHGAKKVAKRTKIKPFIKVVNYNHLLPTRYTLDVEAFKSVVSTETFEQPSQREEAKKVVKKAFEERHQAGKNQWFFSKLRF
B3: Gde1 (enzyme, UniProt Q02979 1-1223)
chain: MKFGKTFANHRIPEWSSQYVGYKSLKKMIKEITRLQEDIYRAHNKNSYDEGRPPTKMRDSSNSAQNYLDSPKIQKLLASFFFAVDRDIEKVDTFYNSQYAEYKKRFERLLSSNQFNEIKSTLVVDANKEDAVAQTLLTKDTREMNMLLKGTSQASRLSYHKDDLIEIQSILAELRKQFRNLKWYAELNKRAFGKILKKLDKKVGTNQQMSTMKTRILPLQFANDSLITKDLSLLKTIWEQVTFRINSYERVMRSTSPNANANDNTEFFKIICVFIEEDDSKGLIRELTNLYSELSLIPTRIMISVLNKAALSKSLACIDAILKVIPSLNDSEDINRRNFFHHHIIAIGKLIRKQEILSRKKKSQPSKYTNSEGEIVTDLRTLHTTLSAPAESDSITEEEKSSACTLSYILEELPIHLRPCLFQHDNYKRTPLHYSCQYGLSEVTKLIIKLMKEWNIWNEIPIDDVSAFGDAESLTPLHLCVLGAHPKTTEVLLQSLDPNVKLKSSSLLHLATEWNNYPLLHVLLSSKRFDINYQDNELHETPLYLACRLNFFEAAVCLLYNGADLEIREKLFGWTAIFVAAAEGFTDIVKLLIANNANFDIEDEGGWTPMEHAVLRGHLHIADMVQIRDELVTHPHSQLNSGSEEKEPLNEISAGELNERNENGNGGNKGSLGKLAGPIKSYGHRFLDNNESLILITLGSNDTRNKSPSISLSSEALAKVIGLETDCALSLVISCNDSIDKSSVILDLPLDDNVDAVDFKVPFKVDYSHTLYFDIVPTYGTRSLETHNRIDCQKNNNNYVMARGVSMLNKSYSSVGVNRSILNGSVTVPIIANHTLEILGTLKFEYIIITPFEHPQLPLERTETYWKSLVSTRVIGHRGLGKNNPNKSLQIGENTVESFIMAASLGASYVEFDVQLTKDNVPVVYHDFLVAETGVDIPMHELTLEQFLDLNNADKEHIQRGAGHSPHHVNGADTALQKYRGRSVDDSDVSTLRRAWDLHDNDPNGKSNNAHWSDNRMRLTKTFKKNNFKGNARGHSIASSFVTLKELFKKIPANVGFNIECKFPMLDEAEEEELGQIMMEMNHWVDTVLKVVFDNANGRDIIFSSFHPDICIMLSLKQPVIPILFLTEGGSEQMADLRASSLQNGIRFAKKWNLLGIVSAAAPILKAPRLVQVVKSNGLVCVTYGVDNNDPENASIQIEAGVDAVIVDSVLAIRRGLTKKNEK
B4: Pds5 (protein, UniProt Q04264 1-1277)
chain: MAKGAVTKLKFNSPIISTSDQLISTNELLDRLKALHEELASLDQDNTDLTGLDKYRDALVSRKLLKHKDVGIRAFTACCLSDILRLYAPDAPYTDAQLTDIFKLVLSQFEQLGDQENGYHIQQTYLITKLLEYRSIVLLADLPSSNNLLIELFHIFYDPNKSFPARLFNVIGGILGEVISEFDSVPLEVLRLIFNKFLTYNPNEIPEGLNVTSDCGYEVSLILCDTYSNRMSRHLTKYYSEIIHEATNDDNNSRLLTVVVKLHKLVLRLWETVPELINAVIGFIYHELSSENELFRKEATKLIGQILTSYSDLNFVSTHSDTFKAWISKIADISPDVRVEWTESIPQIIATREDISKELNQALAKTFIDSDPRVRRTSVMIFNKVPVTEIWKNITNKAIYTSLLHLAREKHKEVRELCINTMAKFYSNSLNEIERTYQNKEIWEIIDTIPSTLYNLYYINDLNINEQVDSVIFEYLLPFEPDNDKRVHRLLTVLSHFDKKAFTSFFAFNARQIKISFAISKYIDFSKFLNNQESMSSSQGPIVMNKYNQTLQWLASGLSDSTKAIDALETIKQFNDERIFYLLNACVTNDIPFLTFKNCYNELVSKLQTPGLFKKYNISTGASIMPRDIAKVIQILLFRASPIIYNVSNISVLLNLSNNSDAKQLDLKRRILDDISKVNPTLFKDQIRTLKTIIKDLDDPDAEKNDNLSLEEALKTLYKASKTLKDQVDFDDTFFFTKLYDFAVESKPEITKYATKLIALSPKAEETLKKIKIRILPLDLQKDKYFTSHIIVLMEIFKKFPHVLNDDSTDIISYLIKEVLLSNQVVGDSKKEIDWVEDSLLSDTKYSAIGNKVFTLKLFTNKLRSIAPDVPRDELAESFTEKTMKLFFYLIASGGELISEFNKEFYPTPSNYQTKLRCVAGIQVLKLARISNLNNFIKPSDIIKLINLVEDESLPVRKTFLEQLKDYVANELISIKFLPLVFFTAYEPDVELKTTTKIWINFTFGLKSFKKGTIFERALPRLIHAIAHHPDIVGGLDSEGDAYLNALTTAIDYLLFYFDSIAAQENFSLLYYLSERVKNYQDKLVEDEIDEEEGPQKEEAPKKHRPYGQKMYIIGELSQMILLNLKEKKNWQHSAYPGKLNLPSDLFKPFATVQEAQLSFKTYIPESLTEKIQNNIKAKIGRILHTSQTQRQRLQKRLLAHENNESQKKKKKVHHARSQADDEEGDGDRESDSDDDSYSPSNKNETKKGHENIVMKKLRVRKEVDYKDDEDDDIEMT
B5: Sec4 (protein, UniProt P07560 1-215)
chain: MSGLRTVSASSGNGKSYDSIMKILLIGDSGVGKSCLLVRFVEDKFNPSFITTIGIDFKIKTVDINGKKVKLQLWDTAGQERFRTITTAYYRGAMGIILVYDVTDERTFTNIKQWFKTVNEHANDEAQLLLVGNKSDMETRVVTADQGEALAKELGIPFIESSAKNDDNVNEIFFTLAKLIQEKIDSNKLVGVGNGKEGNISINSGSGNSSKSNCC
B6: Rpn5 (protein, UniProt Q12250 1-445)
chain: MSRDAPIKADKDYSQILKEEFPKIDSLAQNDCNSALDQLLVLEKKTRQASDLASSKEVLAKIVDLLASRNKWDDLNEQLTLLSKKHGQLKLSIQYMIQKVMEYLKSSKSLDLNTRISVIETIRVVTENKIFVEVERARVTKDLVEIKKEEGKIDEAADILCELQVETYGSMEMSEKIQFILEQMELSILKGDYSQATVLSRKILKKTFKNPKYESLKLEYYNLLVKISLHKREYLEVAQYLQEIYQTDAIKSDEAKWKPVLSHIVYFLVLSPYGNLQNDLIHKIQNDNNLKKLESQESLVKLFTTNELMRWPIVQKTYEPVLNEDDLAFGGEANKHHWEDLQKRVIEHNLRVISEYYSRITLLRLNELLDLTESQTETYISDLVNQGIIYAKVNRPAKIVNFEKPKNSSQLLNEWSHNVDELLEHIETIGHLITKEEIMHGLQAK
B7: Rps12 (protein, UniProt P48589 1-143)
chain: MSDVEEVVEVQEETVVEQTAEVTIEDALKVVLRTALVHDGLARGLRESTKALTRGEALLVVLVSSVTEANIIKLVEGLANDPENKVPLIKVADAKQLGEWAGLGKIDREGNARKVVGASVVVVKNWGAETDELSMIMEHFSQQ
B8: Rpn6 (protein, UniProt Q12377 1-434)
chain: MSLPGSKLEEARRLVNEKQYNEAEQVYLSLLDKDSSQSSAAAGASVDDKRRNEQETSILELGQLYVTMGAKDKLREFIPHSTEYMMQFAKSKTVKVLKTLIEKFEQVPDSLDDQIFVCEKSIEFAKREKRVFLKHSLSIKLATLHYQKKQYKDSLALINDLLREFKKLDDKPSLVDVHLLESKVYHKLRNLAKSKASLTAARTAANSIYCPTQTVAELDLMSGILHCEDKDYKTAFSYFFESFESYHNLTTHNSYEKACQVLKYMLLSKIMLNLIDDVKNILNAKYTKETYQSRGIDAMKAVAEAYNNRSLLDFNTALKQYEKELMGDELTRSHFNALYDTLLESNLCKIIEPFECVEISHISKIIGLDTQQVEGKLSQMILDKIFYGVLDQGNGWLYVYETPNQDATYDSALELVGQLNKVVDQLFEKASVLY
B9: Rps15 (protein, UniProt Q01855 1-142)
chain: MSQAVNAKKRVFKTHSYRGVDLEKLLEMSTEDFVKLAPARVRRRFARGMTSKPAGFMKKLRAAKLAAPENEKPAPVRTHMRNMIIVPEMIGSVVGIYNGKAFNQVEIRPEMLGHYLGEFSITYTPVRHGRAGATTSRFIPLK
B10: Rps18ap (protein, UniProt P0CX55 1-146)
chain: MSLVVQEQGSFQHILRLLNTNVDGNIKIVYALTTIKGVGRRYSNLVCKKADVDLHKRAGELTQEELERIVQIMQNPTHYKIPAWFLNRQNDITDGKDYHTLANNVESKLRDDLERLKKIRAHRGIRHFWGLRVRGQHTKTTGRRRA
B11: Rps16 (protein, UniProt P0CX51 1-143)
chain: MSAVPSVQTFGKKKSATAVAHVKAGKGLIKVNGSPITLVEPEILRFKVYEPLLLVGLDKFSNIDIRVRVTGGGHVSQVYAIRQAIAKGLVAYHQKYVDEQSKNELKKAFTSYDRTLLIADSRRPEPKKFGGKGARSRFQKSYR

What follows are binders tested against T1, FLAG-tagged Drosophila spartin (Drosophila) (assay: affinity purification with mass spectrometry; whole-cell extracts of yeast expressing FLAG-tagged Drosophila spartin (vector control beside it) on anti-FLAG M2 agarose beads; eluates on Tricine-SDS-PAGE, lanes cut into slices, in-gel trypsin digest, LC-MS/MS).

binding, binds:
B1
B2
B3
B4
B5
B6
B7
B8
B9
B10
B11
